For 1 molecule, binding results are on record in patent US20250368735A1 (AKESO BIOPHARMA, published 2025).

Chains of the proteins cited; added tags and fusions are not shown. Residues count along the entry.
UniProt Q08722, residues 19-323: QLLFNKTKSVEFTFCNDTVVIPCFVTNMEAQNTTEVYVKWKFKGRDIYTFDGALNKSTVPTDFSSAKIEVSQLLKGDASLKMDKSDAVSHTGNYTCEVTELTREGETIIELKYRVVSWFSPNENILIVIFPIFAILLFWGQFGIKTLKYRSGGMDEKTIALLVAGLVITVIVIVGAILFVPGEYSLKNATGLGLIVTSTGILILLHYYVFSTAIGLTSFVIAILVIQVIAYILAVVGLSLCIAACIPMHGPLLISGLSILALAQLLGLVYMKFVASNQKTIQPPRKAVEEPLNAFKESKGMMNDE

No constants are given. Whether binding was seen depends on the method and setting. Some entries that bind do so weakly or less than the wild type.

For this experiment, the target named is CD47 on the cell membrane surface (CHO-K1-CLDN18.2-CD47 cells, 3T3-CD47 cells, human red blood cells, human T cells and B cells) (human) (UniProt Q08722). In words: indirect ELISA screening with 3T3-CD47 cells as antigen. For orientation: In an ELISA, binding on a coated surface is turned into a signal by an enzyme label.

B1: 6F7 (antibody, V domains shown)
VH: QVQLQQPGAELVRPGASVKLSCKASGYTFTSYWMNWVKQRPGQGLEWIGMIDPSDSETHNNQMFKDKATLTVDKSSNTAYMHLSSLTSEDSAVYHCARLYRWYFDVWGAGTTVTVSS
VL: NIVMTQSPKSMSMSLGERVTLSCKASEIVGTYVSWFQQKPHQSPKLLIYGASNRYTGVPDRFTGSGSATDFTLTISNVQAEDLADYHCGQSYNFPYTFGGGTKLEIK
notes: Mouse hybridoma antibody; also called anti-CD47 antibody 6F7; monoclonal antibody secreted by hybridoma cell line LT012
As for B1, the binding result is “binds”.
